Results are given in words; binding and its absence hold for the method and conditions named. Binding seen in cells or lysates may run through a third protein. Some results given as binding are weak or reduced against the parent protein; the word gives no strength.
Molecular target: T1, GAIP interacting protein C terminus (GIPC) (human (endogenous in PANC-1)) (UniProt O14908)
T1 sequence: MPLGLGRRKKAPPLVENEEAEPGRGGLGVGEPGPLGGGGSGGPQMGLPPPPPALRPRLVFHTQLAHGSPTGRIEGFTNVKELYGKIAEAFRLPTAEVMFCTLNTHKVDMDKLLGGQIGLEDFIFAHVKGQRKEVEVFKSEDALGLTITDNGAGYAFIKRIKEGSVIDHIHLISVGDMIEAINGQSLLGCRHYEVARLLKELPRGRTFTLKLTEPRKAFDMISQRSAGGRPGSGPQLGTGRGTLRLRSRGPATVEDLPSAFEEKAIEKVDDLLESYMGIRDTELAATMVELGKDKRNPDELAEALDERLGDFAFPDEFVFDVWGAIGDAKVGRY
Assay: co-IP; GIPC antibody used to precipitate from PANC-1 cell lysates (cells transfected with siRNA to GIPC or scrambled control); immunocomplexes blotted for Beclin1 and GIPC

Protein sequences, listed by entry. Tags and fused reporters are not part of them.
UniProt Q14457: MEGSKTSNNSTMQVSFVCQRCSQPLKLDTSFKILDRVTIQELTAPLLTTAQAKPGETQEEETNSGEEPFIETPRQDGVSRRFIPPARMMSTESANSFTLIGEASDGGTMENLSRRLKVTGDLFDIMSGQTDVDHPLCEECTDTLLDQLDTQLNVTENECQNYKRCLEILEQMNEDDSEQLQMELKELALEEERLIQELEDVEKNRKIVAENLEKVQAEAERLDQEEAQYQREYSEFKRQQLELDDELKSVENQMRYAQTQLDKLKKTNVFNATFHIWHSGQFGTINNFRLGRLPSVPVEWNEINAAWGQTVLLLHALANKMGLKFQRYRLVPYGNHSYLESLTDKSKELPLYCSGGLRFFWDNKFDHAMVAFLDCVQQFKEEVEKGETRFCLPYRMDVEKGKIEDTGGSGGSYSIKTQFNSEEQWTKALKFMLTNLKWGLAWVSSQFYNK

## Beclin1 (from UniProt Q14457 1-450)
  binding: binds
